{
  "sequences": {"note": "Sequences of proteins named here, by UniProt entry; tags and fusion partners are left off. A change or cut given only in a name is not applied to a line headed by its entry.", "UniProt Q9UK41": "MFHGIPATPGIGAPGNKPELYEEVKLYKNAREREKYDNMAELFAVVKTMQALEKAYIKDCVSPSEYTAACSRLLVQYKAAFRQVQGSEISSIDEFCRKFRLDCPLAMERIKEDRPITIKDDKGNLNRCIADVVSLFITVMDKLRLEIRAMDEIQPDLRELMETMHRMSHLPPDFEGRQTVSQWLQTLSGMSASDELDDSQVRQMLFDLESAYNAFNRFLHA", "UniProt Q4G0F5, whole entry, looked up": "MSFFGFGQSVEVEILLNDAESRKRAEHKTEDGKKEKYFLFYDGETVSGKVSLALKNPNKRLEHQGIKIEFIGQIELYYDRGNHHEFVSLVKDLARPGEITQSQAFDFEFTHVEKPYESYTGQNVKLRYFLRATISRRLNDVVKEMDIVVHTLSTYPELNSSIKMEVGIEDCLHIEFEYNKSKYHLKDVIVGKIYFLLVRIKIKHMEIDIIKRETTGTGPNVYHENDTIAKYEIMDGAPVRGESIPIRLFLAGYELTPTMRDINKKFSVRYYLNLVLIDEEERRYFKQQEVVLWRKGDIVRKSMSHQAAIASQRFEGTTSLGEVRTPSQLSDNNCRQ", "UniProt Q9H4A3": "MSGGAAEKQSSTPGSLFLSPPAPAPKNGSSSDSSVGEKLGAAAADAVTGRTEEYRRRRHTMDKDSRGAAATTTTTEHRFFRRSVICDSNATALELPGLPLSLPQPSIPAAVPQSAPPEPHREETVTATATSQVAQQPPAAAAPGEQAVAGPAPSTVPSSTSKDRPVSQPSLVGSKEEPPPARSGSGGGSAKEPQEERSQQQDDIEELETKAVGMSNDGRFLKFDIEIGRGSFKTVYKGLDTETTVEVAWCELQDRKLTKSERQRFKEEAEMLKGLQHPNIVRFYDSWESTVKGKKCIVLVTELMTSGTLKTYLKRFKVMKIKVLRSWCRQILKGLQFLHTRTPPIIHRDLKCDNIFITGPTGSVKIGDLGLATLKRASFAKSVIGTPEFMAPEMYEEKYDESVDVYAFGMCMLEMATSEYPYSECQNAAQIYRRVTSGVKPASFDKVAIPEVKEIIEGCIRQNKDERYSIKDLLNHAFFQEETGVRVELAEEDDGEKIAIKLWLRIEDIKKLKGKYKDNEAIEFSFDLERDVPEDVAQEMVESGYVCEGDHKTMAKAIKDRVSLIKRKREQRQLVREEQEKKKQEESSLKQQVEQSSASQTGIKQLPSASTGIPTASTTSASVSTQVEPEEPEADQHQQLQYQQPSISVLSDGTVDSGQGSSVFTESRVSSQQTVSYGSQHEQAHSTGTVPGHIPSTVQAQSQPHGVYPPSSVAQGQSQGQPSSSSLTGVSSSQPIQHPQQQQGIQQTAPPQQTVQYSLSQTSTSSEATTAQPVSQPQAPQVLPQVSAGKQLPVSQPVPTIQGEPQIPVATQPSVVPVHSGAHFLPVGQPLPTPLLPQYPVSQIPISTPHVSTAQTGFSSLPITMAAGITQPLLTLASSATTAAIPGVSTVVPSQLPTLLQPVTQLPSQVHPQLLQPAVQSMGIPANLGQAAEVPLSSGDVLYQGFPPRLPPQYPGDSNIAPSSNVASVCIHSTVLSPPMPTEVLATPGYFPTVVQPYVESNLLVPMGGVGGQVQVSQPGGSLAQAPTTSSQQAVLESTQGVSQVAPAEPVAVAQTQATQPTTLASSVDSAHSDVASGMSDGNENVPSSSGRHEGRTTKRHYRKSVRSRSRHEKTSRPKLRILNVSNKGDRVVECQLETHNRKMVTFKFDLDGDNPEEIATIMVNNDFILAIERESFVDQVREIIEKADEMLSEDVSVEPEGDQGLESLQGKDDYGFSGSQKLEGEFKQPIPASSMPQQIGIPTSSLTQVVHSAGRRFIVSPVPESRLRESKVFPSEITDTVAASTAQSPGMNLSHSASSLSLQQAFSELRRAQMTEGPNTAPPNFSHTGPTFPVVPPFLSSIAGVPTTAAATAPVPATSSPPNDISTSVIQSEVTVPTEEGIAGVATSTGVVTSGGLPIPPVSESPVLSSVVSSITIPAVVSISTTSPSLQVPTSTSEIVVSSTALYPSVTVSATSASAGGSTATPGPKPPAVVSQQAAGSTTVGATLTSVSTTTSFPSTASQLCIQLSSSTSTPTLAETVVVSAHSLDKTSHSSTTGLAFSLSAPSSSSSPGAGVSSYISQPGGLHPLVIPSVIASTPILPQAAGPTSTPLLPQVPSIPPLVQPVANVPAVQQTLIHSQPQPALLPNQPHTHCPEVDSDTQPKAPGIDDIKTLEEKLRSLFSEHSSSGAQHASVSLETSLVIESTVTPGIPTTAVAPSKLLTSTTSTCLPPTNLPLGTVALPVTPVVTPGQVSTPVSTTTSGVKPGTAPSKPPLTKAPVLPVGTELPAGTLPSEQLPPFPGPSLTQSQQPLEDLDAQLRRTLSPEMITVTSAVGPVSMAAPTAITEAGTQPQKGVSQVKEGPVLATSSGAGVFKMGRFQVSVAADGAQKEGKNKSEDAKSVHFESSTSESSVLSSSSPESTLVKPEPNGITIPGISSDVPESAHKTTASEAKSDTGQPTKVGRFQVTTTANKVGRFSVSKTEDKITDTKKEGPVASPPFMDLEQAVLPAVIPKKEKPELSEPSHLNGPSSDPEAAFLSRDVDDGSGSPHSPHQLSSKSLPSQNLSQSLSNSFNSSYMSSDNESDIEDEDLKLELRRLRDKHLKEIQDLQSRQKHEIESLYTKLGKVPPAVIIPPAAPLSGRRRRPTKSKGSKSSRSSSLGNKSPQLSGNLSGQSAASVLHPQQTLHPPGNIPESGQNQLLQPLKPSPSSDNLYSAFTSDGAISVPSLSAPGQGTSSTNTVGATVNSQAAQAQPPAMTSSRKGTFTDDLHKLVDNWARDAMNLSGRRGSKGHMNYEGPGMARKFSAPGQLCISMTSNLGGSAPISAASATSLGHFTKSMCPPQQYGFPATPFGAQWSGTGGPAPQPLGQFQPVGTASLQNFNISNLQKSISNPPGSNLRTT", "UniProt Q9Y4E6, whole entry, looked up": "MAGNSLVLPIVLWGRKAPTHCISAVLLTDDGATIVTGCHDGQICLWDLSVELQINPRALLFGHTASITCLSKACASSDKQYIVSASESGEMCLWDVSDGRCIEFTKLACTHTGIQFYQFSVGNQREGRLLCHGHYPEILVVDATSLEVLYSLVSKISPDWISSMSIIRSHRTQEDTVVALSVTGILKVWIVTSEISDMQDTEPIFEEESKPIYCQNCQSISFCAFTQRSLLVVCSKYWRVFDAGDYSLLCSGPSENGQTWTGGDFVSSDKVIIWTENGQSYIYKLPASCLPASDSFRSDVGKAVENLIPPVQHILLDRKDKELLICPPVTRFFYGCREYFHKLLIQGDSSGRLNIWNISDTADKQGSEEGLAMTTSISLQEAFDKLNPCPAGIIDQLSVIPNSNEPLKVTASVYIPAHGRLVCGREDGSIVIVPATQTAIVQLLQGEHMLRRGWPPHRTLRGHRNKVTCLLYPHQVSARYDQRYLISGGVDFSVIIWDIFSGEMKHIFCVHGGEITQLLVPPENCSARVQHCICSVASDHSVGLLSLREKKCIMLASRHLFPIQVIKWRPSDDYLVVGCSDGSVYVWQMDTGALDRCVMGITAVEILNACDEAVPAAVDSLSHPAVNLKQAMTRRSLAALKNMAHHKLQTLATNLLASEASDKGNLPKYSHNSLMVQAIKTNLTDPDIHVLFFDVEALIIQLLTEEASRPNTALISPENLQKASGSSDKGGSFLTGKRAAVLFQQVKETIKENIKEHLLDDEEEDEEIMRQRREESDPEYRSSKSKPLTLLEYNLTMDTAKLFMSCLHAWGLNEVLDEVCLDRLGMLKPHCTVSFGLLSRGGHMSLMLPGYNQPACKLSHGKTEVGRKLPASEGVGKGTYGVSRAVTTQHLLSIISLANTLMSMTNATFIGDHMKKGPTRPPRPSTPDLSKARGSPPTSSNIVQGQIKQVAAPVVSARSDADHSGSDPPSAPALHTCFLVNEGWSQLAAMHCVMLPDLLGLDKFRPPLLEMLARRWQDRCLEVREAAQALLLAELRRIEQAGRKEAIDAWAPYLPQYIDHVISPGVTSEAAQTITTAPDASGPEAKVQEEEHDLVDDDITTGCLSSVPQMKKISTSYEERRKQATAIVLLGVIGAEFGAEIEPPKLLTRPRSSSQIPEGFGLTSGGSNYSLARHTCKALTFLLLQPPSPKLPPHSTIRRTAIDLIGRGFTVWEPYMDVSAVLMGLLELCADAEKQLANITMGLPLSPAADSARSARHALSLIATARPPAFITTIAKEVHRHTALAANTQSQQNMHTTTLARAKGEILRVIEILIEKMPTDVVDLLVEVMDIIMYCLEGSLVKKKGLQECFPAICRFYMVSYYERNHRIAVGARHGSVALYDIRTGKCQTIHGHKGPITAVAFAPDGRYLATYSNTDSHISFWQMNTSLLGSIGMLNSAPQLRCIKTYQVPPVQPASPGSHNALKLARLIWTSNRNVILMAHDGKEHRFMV", "UniProt P23381": "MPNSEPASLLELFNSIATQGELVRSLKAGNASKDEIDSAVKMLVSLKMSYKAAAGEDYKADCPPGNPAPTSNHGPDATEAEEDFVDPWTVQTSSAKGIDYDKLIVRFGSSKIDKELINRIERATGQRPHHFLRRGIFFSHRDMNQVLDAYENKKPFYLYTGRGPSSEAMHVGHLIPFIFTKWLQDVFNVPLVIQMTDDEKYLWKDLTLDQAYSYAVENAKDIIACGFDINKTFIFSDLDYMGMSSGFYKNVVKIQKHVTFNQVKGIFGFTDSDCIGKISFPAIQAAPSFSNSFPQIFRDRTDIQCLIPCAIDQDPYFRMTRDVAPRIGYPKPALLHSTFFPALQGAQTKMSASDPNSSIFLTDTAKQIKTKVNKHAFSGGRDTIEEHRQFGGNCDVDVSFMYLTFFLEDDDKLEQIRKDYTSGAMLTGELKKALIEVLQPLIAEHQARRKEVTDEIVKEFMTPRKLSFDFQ", "UniProt Q9UID3": "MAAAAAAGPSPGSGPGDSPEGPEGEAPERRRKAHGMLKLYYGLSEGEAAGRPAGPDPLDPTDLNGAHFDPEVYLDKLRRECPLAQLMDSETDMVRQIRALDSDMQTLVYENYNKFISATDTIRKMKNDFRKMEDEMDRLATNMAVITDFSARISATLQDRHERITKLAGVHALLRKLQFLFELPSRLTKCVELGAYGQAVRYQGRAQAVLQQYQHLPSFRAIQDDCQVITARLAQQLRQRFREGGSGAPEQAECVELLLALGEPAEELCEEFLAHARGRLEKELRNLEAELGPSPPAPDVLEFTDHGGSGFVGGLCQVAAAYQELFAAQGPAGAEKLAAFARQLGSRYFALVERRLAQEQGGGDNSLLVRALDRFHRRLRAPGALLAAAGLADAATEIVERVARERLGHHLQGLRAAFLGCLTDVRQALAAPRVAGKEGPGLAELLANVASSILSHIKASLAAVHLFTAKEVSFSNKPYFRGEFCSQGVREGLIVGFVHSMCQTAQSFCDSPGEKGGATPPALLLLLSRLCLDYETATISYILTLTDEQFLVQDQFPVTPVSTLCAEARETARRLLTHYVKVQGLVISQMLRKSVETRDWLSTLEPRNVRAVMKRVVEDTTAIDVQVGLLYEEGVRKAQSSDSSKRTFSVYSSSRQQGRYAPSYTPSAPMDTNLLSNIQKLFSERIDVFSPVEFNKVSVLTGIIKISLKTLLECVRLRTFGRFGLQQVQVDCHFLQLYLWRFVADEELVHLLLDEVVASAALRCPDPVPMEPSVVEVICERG", "UniProt O75351, whole entry, looked up": "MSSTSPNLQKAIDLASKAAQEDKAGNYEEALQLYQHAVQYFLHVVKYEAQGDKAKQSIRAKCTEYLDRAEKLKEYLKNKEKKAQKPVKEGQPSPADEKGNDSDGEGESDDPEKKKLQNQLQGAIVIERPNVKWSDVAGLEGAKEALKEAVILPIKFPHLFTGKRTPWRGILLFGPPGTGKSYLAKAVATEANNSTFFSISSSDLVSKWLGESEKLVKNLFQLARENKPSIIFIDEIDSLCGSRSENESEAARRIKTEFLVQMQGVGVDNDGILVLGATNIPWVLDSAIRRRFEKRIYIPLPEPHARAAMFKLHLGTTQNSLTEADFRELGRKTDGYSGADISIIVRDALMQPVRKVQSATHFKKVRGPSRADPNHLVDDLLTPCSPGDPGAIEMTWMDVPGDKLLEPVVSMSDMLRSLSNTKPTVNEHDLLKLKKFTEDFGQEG", "UniProt Q3ZAQ7": "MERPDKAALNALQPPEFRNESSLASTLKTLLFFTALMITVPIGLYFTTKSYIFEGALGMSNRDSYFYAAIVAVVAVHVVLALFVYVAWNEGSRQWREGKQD"},
  "source": "the supplement of paper PMC10849652",
  "note": "The other results are listed elsewhere or left out.",
  "data": [
    {"compound": "CC1=C2C(=CC=C1)N=C(N(C2=O)C3=CC=CC=C3C)CN4C=NC5=C(N=CN=C54)N", "assay": "log2 fold change, soluble protein after heating vs DMSO (PISA); higher = thermal stabilisation; K562 lysate, 10 uM; active = over 0.2 and 3.5 SD of the protein, either way, in both replicates (recomputed)", "procedure,_shortened": "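Following dounce homogenisation of K562 pellets in PBS pH 7.4 with 1 mM MgCl2, crude extract at 1 mg/mL protein was incubated for 30 min with 10 μM compound. Aliquots were then heated for 3 min over 48°C-58°C and pooled, NP-40 was added to 0.5% at 4°C, and soluble protein was recovered as the supernatant at 21,000xg for 90 min. Channel-sum-equalised TMTpro 16plex LC-MS/MS quantified this protein. Each value, from duplicates, is a log-two fold change in thermal stability relative to solvent controls.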", "values": [
      {"target": "VPS28 (UniProt Q9UK41)", "log2 fold change": "inactive: -0.013"},
      {"target": "VPS35 (UniProt Q96QK1)", "log2 fold change": "inactive: 0.001"},
      {"target": "VPS13A (UniProt Q96RL7)", "log2 fold change": "inactive: 0.018"},
      {"target": "WIPF2 (UniProt Q8TF74)", "log2 fold change": "inactive: 0.015"},
      {"target": "WDR24 (UniProt Q96S15)", "log2 fold change": "inactive: -0.093"},
      {"target": "VPS26B (UniProt Q4G0F5)", "log2 fold change": "inactive: 0.001"},
      {"target": "WDR13 (UniProt Q9H1Z4)", "log2 fold change": "inactive: 0.037"},
      {"target": "VPS8 (UniProt Q8N3P4)", "log2 fold change": "inactive: 0.034"},
      {"target": "WDTC1 (UniProt Q8N5D0)", "log2 fold change": "inactive: -0.015"},
      {"target": "WNK1 isoform 7 (UniProt Q9H4A3)", "log2 fold change": "inactive: 0.022"},
      {"target": "WASH2P (UniProt Q6VEQ5)", "log2 fold change": "inactive: 0.079"},
      {"target": "WDR70 (UniProt Q9NW82)", "log2 fold change": "inactive: 0.006"},
      {"target": "WDR47 (UniProt O94967)", "log2 fold change": "inactive: 0.02"},
      {"target": "VPS45 (UniProt Q9NRW7)", "log2 fold change": "inactive: 0.017"},
      {"target": "WDR7 (UniProt Q9Y4E6)", "log2 fold change": "inactive: 0.019"},
      {"target": "VKORC1L1, A0A3B3ISV4", "log2 fold change": "inactive: -0.029"},
      {"target": "WDR75 (UniProt Q8IWA0)", "log2 fold change": "inactive: 0.052"},
      {"target": "WARS (UniProt P23381)", "log2 fold change": "inactive: -0.031"},
      {"target": "VPS51 (UniProt Q9UID3)", "log2 fold change": "inactive: 0.023"},
      {"target": "VIRMA (UniProt Q69YN4)", "log2 fold change": "inactive: 0.015"},
      {"target": "VRK3 (UniProt Q8IV63)", "log2 fold change": "inactive: 0.031"},
      {"target": "VPS4B (UniProt O75351)", "log2 fold change": "inactive: 0.017"},
      {"target": "VMA21 (UniProt Q3ZAQ7)", "log2 fold change": "inactive: -0.014"},
      {"target": "WDR5 (UniProt P61964)", "log2 fold change": "inactive: -0.024"}
    ]}
  ]
}
